Data as given in publication doi:10.1101/2021.02.23.432385.
Results are given in words; binding and its absence hold for the method and conditions named. Some results given as binding are weak or reduced against the parent protein; the word gives no strength. Sequences can lack the tags named with a protein.

Biological target: T1, Yjef-N-GST (Edc3 fragment) (S. cerevisiae) (UniProt P39998)
T1 sequence: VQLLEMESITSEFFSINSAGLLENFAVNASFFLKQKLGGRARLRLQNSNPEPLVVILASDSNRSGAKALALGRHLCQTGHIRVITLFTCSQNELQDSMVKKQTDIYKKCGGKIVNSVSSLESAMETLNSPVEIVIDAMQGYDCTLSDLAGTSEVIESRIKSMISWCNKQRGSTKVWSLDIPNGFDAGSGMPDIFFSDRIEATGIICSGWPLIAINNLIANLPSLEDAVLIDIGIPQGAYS
Assay: pull-down

B1: His-Sbp1-FLAG (protein, UniProt P10080 1-294)
chain: MSAEIEEATNAVNNLSINDSEQQPRAPTHKTVIDPEDTIFIGNVAHECTEDDLKQLFVEEFGDEVSVEIPIKEHTDGHIPASKHALVKFPTKIDFDNIKENYDTKVVKDREIHIKRARTPGQMQRGGFRGRGGFRGRGGFRGGFRGGYRGGFRGRGNFRGRGGARGGFNGQKREKIPLDQMERSKDTLYINNVPFKATKEEVAEFFGTDADSISLPMRKMRDQHTGRIFTSDSANRGMAFVTFSGENVDIEAKAEEFKGKVFGDRELTVDVAVIRPENDEEEIEQETGSEEKQE
**Q.** How did the binding turn out when B1 was run?
**A.** The binding was “binds”.
